Where a name gives a salt, the structure may show the parent alone. This is one part of the list. Most values lie at the level of the controls, where differences are scatter.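 Melting temperature was read by differential scanning fluorimetry in a single-replicate pilot screen of a library of approved drugs and clinical or known-target compounds. Compounds raising the melting point by at least 2 °C were the top stabilizing hits, and negative shifts mean destabilization.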
Tested on: SARS-CoV-2 main protease (Mpro, nsp5)
Assay: thermal shift ΔTm of Mpro relative to plate average Tm; higher = stronger thermal stabilization of Mpro (binding)
Settings: 10 µM; protein concentration 1 µM

Row | SMILES | thermal shift ΔTm of Mpro [°C]
1 | COc1cc(F)c(F)c(Nc2ccc(I)cc2F)c1NS(=O)(=O)C1(C[C@H](O)CO)CC1 [Refametinib (RDEA119, Bay 86-9766)] | 0.238
2 | CC(C)n1cnc2c(-c3cnc(N)nc3)nc(N3CCOCC3)nc21 [Desmethyl-VS-5584] | 0.131
3 | O=S(=O)(c1ccccc1)N(CC(F)(F)F)c1ccc(C(O)(C(F)(F)F)C(F)(F)F)cc1 | -0.00135
4 | CC#CC(=O)Nc1ccc2ncnc(Nc3cccc(Br)c3)c2c1 | 0.145
5 | CCOC(=O)C1=C(C)NC(C)=C(C(=O)OCC)C1c1ccccc1/C=C/C(=O)OC(C)(C)C [Lacidipine] | 0.0491
6 | Cn1c(=O)n(-c2ccc(C(C)(C)C#N)cc2)c2c3cc(-c4cnc5ccccc5c4)ccc3ncc21 [Dactolisib] | -0.241
7 | O=C(c1cccs1)c1no[n+]([O-])c1C(=O)c1cccs1 | 0.0698
8 | O=C(O)C(Cc1c[nH]c2ccccc12)N1C(=O)c2ccccc2C1=O (centres undefined) | -0.138
9 | CCOc1cc(CC(=O)N[C@@H](CC(C)C)c2ccccc2N2CCCCC2)ccc1C(=O)O [Repaglinide] | 0.297
10 | CCCn1/c(=N/C(=O)c2cccc(C(N)=O)c2)[nH]c2ccccc21 [Takinib] | -0.0864
11 | CC(=O)OCC(=O)[C@@]1(O)[C@H](C)C[C@H]2[C@@H]3CCC4=CC(=O)C=C[C@]4(C)[C@@]3(F)[C@@H](O)C[C@@]21C [Dexamethasone Acetate] | 0.011
12 | COc1ncnc(NS(=O)(=O)c2ccc(N)cc2)c1OC [Sulfadoxine] | 0.277
13 | CC(C)(C)c1ccc(C(=O)NC(=S)Nc2ccc(N)cc2)cc1 [Tenovin-3] | 0.0952
14 | CC1(C)CCC[C@]2(C)[C@H]3CC(=O)O[C@]3(C)CC[C@@H]12 [Sclareolide] | -0.102
15 | COc1ccc(C(=O)c2ccccc2)c(O)c1 [Oxybenzone] | 0.145
16 | COc1c(N2C[C@@H]3CCCN[C@@H]3C2)c(F)cc2c(=O)c(C(=O)O)cn(C3CC3)c12 [Moxifloxacin HCl] | 0.247
17 | COc1ccc(C(=O)CC(=O)c2ccc(C(C)(C)C)cc2)cc1 [Avobenzone] | -0.0273
18 | OC[C@H]1O[C@H](OC[C@H]2OC(O)[C@H](O)[C@@H](O)[C@@H]2O)[C@H](O)[C@@H](O)[C@@H]1O (some centres undefined) [Isomaltose] | 0.196
19 | Cc1c(CCC(=O)O)ccc(OCc2cc(Cl)cc3c2OC(C)(C)C3)c1C [GPR120 receptor agonist] | -0.368
20 | CC[C@@H]1[C@H](O)[C@@H]2[C@H](CC[C@]3(C)[C@@H]([C@H](C)CCCO)CC[C@@H]23)[C@@]2(C)CC[C@@H](O)C[C@@H]12 | -0.397
21 | O=C(O)Cn1c2c(c3cc(F)ccc31)CN(C(=O)c1cccc3ccccc13)CC2 [Setipiprant] | 0.0638
22 | Nc1nc2c(ncn2COCCO)c(=O)[nH]1 [Aciclovir] | 0.134
23 | Oc1ccc(-c2c(-c3ccccc3)nn3c(C(F)(F)F)cc(C(F)(F)F)nc23)cc1 | 0.0707
24 | COc1ccc(S(=O)(=O)Nc2c(C)cc(C)cc2C)cc1 | -0.0316
25 | CS(=O)(=O)N1CCN(Cc2cc3nc(-c4cccc5[nH]ncc45)nc(N4CCOCC4)c3s2)CC1 | 0.0794

Row | SMILES | thermal shift ΔTm of Mpro [°C]
26 | CC(C)NCC(O)c1ccc(O)c(O)c1 (centres undefined) [Isoprenaline HCl] | 0.0485
27 | Cc1cc(N2CCOCC2)cc2[nH]c(-c3c(NC[C@@H](O)c4cccc(Cl)c4)cc[nH]c3=O)nc12 | 0.137
28 | COc1ccc2[nH]c([S@@+]([O-])Cc3ncc(C)c(OC)c3C)nc2c1 [Esomeprazole Magnesium] | -0.0991
29 | COc1ccc2[nH]c([S@@+]([O-])Cc3ncc(C)c(OC)c3C)nc2c1 [Esomeprazole Sodium] | -0.12
30 | C[N+](C)(C)CC(O)CC(=O)O (stereo in doubt) [L-Carnitine hydrochloride] | 0.286
31 | CC1(C)C[C@@H]1C(=O)N/C(=C\CCCCSC[C@H](N)C(=O)O)C(=O)O [Cilastatin] | 0.403
32 | O=C(NCc1cccc(O)c1)c1cc2cc(F)ccc2[nH]1 | 0.00276
33 | CN(C)Cc1cccc(N=C(c2ccccc2)c2c(O)[nH]c3cc(C(=O)N(C)C)ccc23)c1 | -0.184
34 | OC(c1cc(C(F)(F)F)nc2c(C(F)(F)F)cccc12)C1CCCCN1 (centres undefined) [Mefloquine HCl] | 0.0703
35 | CCc1c(O)cc(O)c(C(=O)c2ccc(OCCN3CCOCC3)c(OC)c2)c1CC(=O)N(CCOC)CCOC | -0.17
36 | CNCCCC12CCC(c3ccccc31)c1ccccc12 [Maprotiline HCl] | 0.0347
37 | CC[C@H]1OC(=O)C[C@@H](O)[C@H](C)[C@@H](O[C@@H]2O[C@H](C)[C@@H](O)[C@H](N(C)C)[C@H]2O)[C@@H](CCN2C[C@H](C)C[C@H](C)C2)C[C@@H](C)C(=O)/C=C/C(C)=C/[C@@H]1CO[C@@H]1O[C@H](C)[C@@H](O)[C@@H](OC)[C@H]1OC [Tilmicosin] | 0.0292
38 | Cc1coc2c1C(=O)C(=O)c1c-2ccc2c1CCCC2(C)C [Tanshinone IIA] | -0.0364
39 | Cc1cn2cc(C(=O)N(C)CCO)cc(N[C@@H]3CCOc4cccc(C)c43)c2n1 | -0.0777
40 | CO/N=C(\C(=O)N[C@@H]1C(=O)N2C(C(=O)[O-])=C(C[N+]3(C)CCCC3)CS[C@H]12)c1csc(N)n1 [Cefepime Dihydrochloride Monohydrate] | 0.0607
41 | NCC1CCN(c2nccc(-c3ccc4ccccc4c3)n2)CC1 | 0.0268
42 | Fc1cc(F)c2c(c1)[C@H]1C=CC[C@H]1C(c1cccnc1)N2 (some centres undefined) [Golgicide A] | 0.0423
43 | CC[C@@H](C)c1ccc(NC(=O)Cn2cnc3c2c(=O)n(C)c(=O)n3C)cc1 (racemic) | 0.109
44 | N#Cc1ccc(COC[C@H]2O[C@@H](n3c(NCc4ccc(Cl)c(Cl)c4)nc4c(N)ncnc43)[C@H](O)[C@@H]2O)cc1 | -0.205
45 | C[C@]12C=CC(=O)C=C1CC[C@H]1[C@@H]3C[C@@H](O)[C@](O)(C(=O)CO)[C@@]3(C)C[C@H](O)[C@@]12F [Triamcinolone] | 0.096
46 | CC1(C)O[C@@H]2C[C@H]3[C@@H]4CCC5=CC(=O)CC[C@]5(C)[C@@]4(F)[C@@H](O)C[C@]3(C)[C@]2(C(=O)CCl)O1 [Halcinonide] | -0.084
47 | C=C1CCN([C@H](C)[C@](O)(Cn2cncn2)c2ccc(F)cc2F)CC1 [Efinaconazole] | 0.0185
48 | CN(C)CCN(C)CCc1ccc(Cl)c(Cl)c1 | 0.148
49 | CCN(CC)C(=O)/C(C#N)=C/c1cc(O)c(O)c([N+](=O)[O-])c1 [Entacapone] | 0.658
50 | S=C(NCCc1ccccn1)Nc1ccc(Br)cn1 [Trovirdine] | -0.0465

Another view of some results above.

| Row | SMILES | thermal shift ΔTm of Mpro [°C] |
| --- | --- | --- |
| 16 | COc1c(N2C[C@@H]3CCCN[C@@H]3C2)c(F)cc2c(=O)c(C(=O)O)cn(C3CC3)c12 [Moxifloxacin HCl] | 0.247 |
| 17 | COc1ccc(C(=O)CC(=O)c2ccc(C(C)(C)C)cc2)cc1 [Avobenzone] | -0.0273 |
| 18 | OC[C@H]1O[C@H](OC[C@H]2OC(O)[C@H](O)[C@@H](O)[C@@H]2O)[C@H](O)[C@@H](O)[C@@H]1O (some centres undefined) [Isomaltose] | 0.196 |
| 19 | Cc1c(CCC(=O)O)ccc(OCc2cc(Cl)cc3c2OC(C)(C)C3)c1C [GPR120 receptor agonist] | -0.368 |
| 20 | CC[C@@H]1[C@H](O)[C@@H]2[C@H](CC[C@]3(C)[C@@H]([C@H](C)CCCO)CC[C@@H]23)[C@@]2(C)CC[C@@H](O)C[C@@H]12 | -0.397 |
| 21 | O=C(O)Cn1c2c(c3cc(F)ccc31)CN(C(=O)c1cccc3ccccc13)CC2 [Setipiprant] | 0.0638 |
| 22 | Nc1nc2c(ncn2COCCO)c(=O)[nH]1 [Aciclovir] | 0.134 |
| 23 | Oc1ccc(-c2c(-c3ccccc3)nn3c(C(F)(F)F)cc(C(F)(F)F)nc23)cc1 | 0.0707 |
| 24 | COc1ccc(S(=O)(=O)Nc2c(C)cc(C)cc2C)cc1 | -0.0316 |
| 25 | CS(=O)(=O)N1CCN(Cc2cc3nc(-c4cccc5[nH]ncc45)nc(N4CCOCC4)c3s2)CC1 | 0.0794 |
| 26 | CC(C)NCC(O)c1ccc(O)c(O)c1 (centres undefined) [Isoprenaline HCl] | 0.0485 |
| 27 | Cc1cc(N2CCOCC2)cc2[nH]c(-c3c(NC[C@@H](O)c4cccc(Cl)c4)cc[nH]c3=O)nc12 | 0.137 |
| 28 | COc1ccc2[nH]c([S@@+]([O-])Cc3ncc(C)c(OC)c3C)nc2c1 [Esomeprazole Magnesium] | -0.0991 |
| 29 | COc1ccc2[nH]c([S@@+]([O-])Cc3ncc(C)c(OC)c3C)nc2c1 [Esomeprazole Sodium] | -0.12 |
| 30 | C[N+](C)(C)CC(O)CC(=O)O (stereo in doubt) [L-Carnitine hydrochloride] | 0.286 |
| 31 | CC1(C)C[C@@H]1C(=O)N/C(=C\CCCCSC[C@H](N)C(=O)O)C(=O)O [Cilastatin] | 0.403 |
| 32 | O=C(NCc1cccc(O)c1)c1cc2cc(F)ccc2[nH]1 | 0.00276 |
| 33 | CN(C)Cc1cccc(N=C(c2ccccc2)c2c(O)[nH]c3cc(C(=O)N(C)C)ccc23)c1 | -0.184 |
| 34 | OC(c1cc(C(F)(F)F)nc2c(C(F)(F)F)cccc12)C1CCCCN1 (centres undefined) [Mefloquine HCl] | 0.0703 |
| 35 | CCc1c(O)cc(O)c(C(=O)c2ccc(OCCN3CCOCC3)c(OC)c2)c1CC(=O)N(CCOC)CCOC | -0.17 |
| 36 | CNCCCC12CCC(c3ccccc31)c1ccccc12 [Maprotiline HCl] | 0.0347 |
| 37 | CC[C@H]1OC(=O)C[C@@H](O)[C@H](C)[C@@H](O[C@@H]2O[C@H](C)[C@@H](O)[C@H](N(C)C)[C@H]2O)[C@@H](CCN2C[C@H](C)C[C@H](C)C2)C[C@@H](C)C(=O)/C=C/C(C)=C/[C@@H]1CO[C@@H]1O[C@H](C)[C@@H](O)[C@@H](OC)[C@H]1OC [Tilmicosin] | 0.0292 |

(next part)

Row | SMILES | thermal shift ΔTm of Mpro [°C]
51 | C[C@@H]1O[C@@H](OC[C@H]2O[C@@H](Oc3c(-c4ccc(OCCO)c(OCCO)c4)oc4cc(OCCO)cc(O)c4c3=O)[C@H](O)[C@@H](O)[C@@H]2O)[C@H](O)[C@H](O)[C@H]1O [Troxerutin] | -0.0554
52 | Nc1nc(N)nc(NC2CC2)n1 [Cyromazine] | -0.0873
53 | Cn1nnc(-c2ccc3c(c2)[nH]c2nc(Cc4ccccc4)nc(NC4CCC(N)CC4)c23)n1 (centres undefined) | -0.169
54 | C[C@@H](O)[C@H]1C(=O)N2C(C(=O)O)=C(S[C@@H]3CN[C@H](C(=O)N(C)C)C3)[C@H](C)[C@H]12 [Meropenem] | 0.121
55 | COc1ccc(NC(=O)c2ccc(C(=N)N(C)C)cc2)c(C(=O)Nc2ccc(Cl)cn2)c1 [Betrixaban maleate] | 0.0141
56 | COc1ccc(NC(=O)c2ccc(C(=N)N(C)C)cc2)c(C(=O)Nc2ccc(Cl)cn2)c1 [Betrixaban hydrochloride] | 0.0237
57 | Cc1cc(C)cc(OCC2CNC(=O)O2)c1 (centres undefined) [Metaxalone] | 0.21
58 | CN1[C@@H]2CC[C@H]1C[C@@H](OC(=O)[C@H](CO)c1ccccc1)C2 [Hyoscyamine] | -0.0775
59 | CC(=O)O[C@H]1C[C@@H]2CC[C@@H]3[C@H](CC[C@@]4(C)[C@H]3C[C@H]([N+]3(C)CCCCC3)[C@@H]4OC(C)=O)[C@@]2(C)C[C@@H]1N1CCCCC1 [Vecuronium Bromide] | 0.102
60 | CC(C)(C)c1nc(-c2cccc(NS(=O)(=O)c3c(F)cccc3F)c2F)c(-c2ccnc(N)n2)s1 | -0.169
61 | C[C@H]1O[C@@H](n2cc(F)c(=O)[nH]c2=O)[C@H](O)[C@@H]1O [Doxifluridine] | 0.0683
62 | Cc1cc(Nc2cc(N)ncn2)c(=O)n2c1C(=O)NC21CCCCC1 | -0.0255
63 | Cc1c(C(=O)Nc2ccc(N3CCC(N4CCOCC4)CC3)c(C#N)c2)cnn1-c1ccc(Cl)cc1 | -0.329
64 | COc1cc(O)c2c(=O)cc(-c3ccc(O)c(OC)c3)oc2c1 [Velutin] | 0.0998
65 | O=c1c(-c2ccc(O)cc2)coc2cc(O)ccc12 [Daidzein] | 0.0966
66 | C=C(Cc1ccccc1Cl)C(=O)OCC | -0.0933
67 | O=C(O)CCCCC(CCSCc1ccccc1)SCc1ccccc1 (centres undefined) | -0.23
68 | CC1(C)CC[C@]2(C(=O)O)CC[C@]3(C)C(=CC[C@@H]4[C@@]5(C)CC[C@H](O)C(C)(C)[C@@H]5CC[C@]43C)[C@@H]2C1 [Oleanolic Acid] | 0.284
69 | CN1C(=O)OC(C)(C)C1=O [Trimethadione] | 0.14
70 | CC(C)CN(CC(=O)N1CCN(CC(OCc2ccc3ccccc3c2)c2ccc(Cl)cc2Cl)CC1)CC(C)C (centres undefined) | -0.271
71 | Cn1nccc1Nc1nccc(-c2cc3c(s2)C(C)(C)N(CCN2CCOCC2)C3=O)n1 | -0.041
72 | CN(C/C=C/c1ccccc1)Cc1cccc2ccccc12 [Naftifine hydrochloride] | 0.0314
73 | Nc1c(CC(=O)O)cccc1C(=O)c1ccc(Br)cc1 [Bromfenac Sodium] | -0.117
74 | CN(C)CCOc1ccc(-c2nc(-c3ccncc3)c(-c3ccc4c(c3)CC/C4=N\O)[nH]2)cc1 | -0.151
